Measurements from doi:10.1101/2023.02.03.527076.

T1: TAP-AtSYP32 (9 x myc-AtSYP32) fusion protein (Arabidopsis thaliana) (UniProt Q9LK09)
T1 sequence: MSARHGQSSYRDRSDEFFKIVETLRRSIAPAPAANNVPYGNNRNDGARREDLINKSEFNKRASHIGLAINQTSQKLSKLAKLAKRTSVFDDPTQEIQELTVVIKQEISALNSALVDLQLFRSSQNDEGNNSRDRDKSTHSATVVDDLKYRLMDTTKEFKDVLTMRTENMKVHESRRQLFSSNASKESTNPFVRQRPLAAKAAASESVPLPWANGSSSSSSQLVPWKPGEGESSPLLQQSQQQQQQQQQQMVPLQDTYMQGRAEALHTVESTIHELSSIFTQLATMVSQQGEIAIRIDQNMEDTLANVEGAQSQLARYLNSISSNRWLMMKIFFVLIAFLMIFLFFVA


Target: T1, TAP-AtSYP32 (9 x myc-AtSYP32) fusion protein (Arabidopsis thaliana)
Experiment: affinity purification with mass spectrometry

binding | Binder
binds | DRP2B (endogenous) (protein, UniProt Q9LQ55 1-920) MEAIDELSQLSDSMRQAASLLADEDPDETSSSRRPATSLNVVALGNVGAGKSAVLNSLIGHPVLPTGENGATRAPIIIDLSREESLSSKAIILQIDNKNQQVSASALRHSLQDRLSKGASGRGRDEIYLKLRTSTAPPLKLIDLPGLDQRIVDDSMIGEHAQHNDAILLVVVPASQASEISSSRALKIAKEYDPESTRTVGIISKIDQAAENPKSLAAVQALLSNQGPPKTTDIPWVALIGQSVSIASAQSGGSENSLETAWRAESESLKSILTGAPQSKLGRIALVDTLASQIRSRMKLRLPNILTGLQGKSQIVQDELARLGEQLVSSAEGTRAIALELCREFEDKFLLHLAGGEGSGWKVVASFEGNFPNRIKKLPLDRHFDLNNVKRIVLEADGYQPYLISPEKGLRSLIKTVLELAKDPARLCVDEVHRVLVDIVSASANATPGLGRYPPFKREVVAIASAALDGFKNEAKKMVVALVDMERAFVPPQHFIRLVQRRMERQRREEELKGRSSKKGQDAEQSLLNRATSPQPDGPSSTGGSLKSLRDKLMPQDKDKDKEKETPEVSGLKTAGPEGEITAGYLMKKSAKTNGWSRRWFVLNEKTGKLGYTKKQEERNFRGTVTLEECSIEEISDDEGEKSKSSKDKKSNGPDSKGPGLVFKITCRVPYKTVLKAHNALVLKAESMVDKNEWINKLQKVIQARGGQVGSASMRQSLSEGSLDKMVRKPVDPEEELRWMSQEVRGYVEAVLNSLAANVPKAVVLCQVEKSKEDMLNQLYSSISAIGNERIESLIQEDQNVKRRRDRYQKQSSLLSKLTRQLSIHDNRAAAASSWSDNSGTESSPRTNGGSSGEDWMNAFNAAASGPDSLKRYGSGGHSRRYSDPAQNGEDSSGSGGSSRRTTPNRLPPAPPQSGSSYRY
binds | RABA4D (endogenous) (protein, UniProt Q9LH50 1-222) MSNLYGDYNQKIDYVFKVVLIGDSAVGKTQLLARFARNEFSVDSKATIGVEFQTKTLVIDNKTVKAQIWDTAGQERYRAVTSAYYRGAVGAMLVYDMTKRQSFDHMAKWLEELRGHADKNIVIMLIGNKCDLGSLRAVPTEDAQEFAQRENLFFMETSALEATNVETAFLTILTEIYRIISKKSLTADDDDADGNSSLLKGTRIIIPSEQESGKRGGCCGKS

These are yes or no findings as the source states them, for the method shown. In cells and extracts the contact can be indirect. These calls come from enrichment with a bait or labelling near it, and not all partners need be listed. Tags and fused reporters may be left off the sequences shown.
